{"source": "the supplement of paper PMC10338343", "note": "± gives the standard deviation. This is a selection; strong and weak results do not stand in their true shares. Many of these values have a large error."}
{"test_system": "MIWI (PIWIL1) piRISC loaded with L1MC piRNA (30 nt)", "assay": "pre-steady-state target cleavage rate (min^-1); MIWI and MILI are mouse PIWI proteins and EfPiwi is from a freshwater sponge; tags in brackets are library labels; higher = faster piRNA-guided slicing of the target", "conditions": "guide: L1MC piRNA 5'p-UAACUAAAUACUAUGCAAGCUGUAGGUCCU; auxiliary factor: none (no GTSF1)", "method_in_brief": "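The method was Cleave-'n-Seq, in which uncleaved targets from a transcribed, DNA-blocked target RNA library were sequenced after exposure to active affinity-purified piRISC carrying one synthetic guide, with or without GTSF1 partner protein. Reactions contained 0.1 nM library, 1 nM piRISC and, where present, 500 nM GTSF1 in HEPES–potassium acetate buffer at 33 °C for 0–8 or 0–960 min. Reads were normalised to depth and to weakly complementary targets, three trials were pooled, and k3 was capped at 0.0001 min^-1. The pre-steady-state cleavage rate came from a burst-and-steady-state fit.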"}
{"sequence": "UCGACCUACAGCUGCAUAGUAUUUAGUUA", "pre-steady-state target cleavage rate": "0.00665 ± 0.0025"}
{"sequence": "UCCACCUACAGCUUGCAUAGUAUAUACAAA", "pre-steady-state target cleavage rate": "0.0012 ± 0.0069"}
{"sequence": "UCGACCUACACUUGCAUAGUAUUUAGUUA", "pre-steady-state target cleavage rate": "0.0331 ± 0.0076"}
{"sequence": "UGGACCUACAGCUUGCAUAGUAUUUAGUUUA", "pre-steady-state target cleavage rate": "0.075 ± 0.014"}
{"sequence": "ACCUCCUACAGCUUGCAUAGUAUUUAGUAA", "pre-steady-state target cleavage rate": "0.0351 ± 0.0072"}
{"sequence": "UCCACCAACAGCAUGCAUAGUAUUUAGUUA", "pre-steady-state target cleavage rate": "0.0211 ± 0.0046"}
{"sequence": "UGGUCGUACAGCUUGCAUAGUAUUUAGUUA", "pre-steady-state target cleavage rate": "0.073 ± 0.0095"}
{"sequence": "AGGACCAACAGCUUGCAUAGUAUUUAGUUA", "pre-steady-state target cleavage rate": "0.122 ± 0.021"}
{"sequence": "UCGUCCUACAGCUUGCAAAGUAUUUAGUUA", "pre-steady-state target cleavage rate": "0.0388 ± 0.0068"}
{"sequence": "UGGACCUACAGCUUGAUAGUAUUUAGUUA", "pre-steady-state target cleavage rate": "0.0103 ± 0.003"}
{"sequence": "AGGACCUACUGCUUGCAUAGUAUUUAGUAA", "pre-steady-state target cleavage rate": "0.0651 ± 0.012"}
{"sequence": "UCCACGAUCAGCUUGCAUAGUAUUUAGUUA", "pre-steady-state target cleavage rate": "0.0711 ± 0.013"}
{"sequence": "UGGACCUACAGCUUGCAUAGUAUAUAGUAA", "pre-steady-state target cleavage rate": "0.012 ± 0.0037"}
{"sequence": "UGGACCUACCGCUUGCAUAGUAUUUAGUUA", "pre-steady-state target cleavage rate": "0.0558 ± 0.0098"}
{"sequence": "AGGACAUACAGCUUGCAUAGUAUUUAGUUA", "pre-steady-state target cleavage rate": "0.0818 ± 0.012"}
{"sequence": "UCCUGGAUGUCCUUGGUUAGUAUUUAGUUA", "pre-steady-state target cleavage rate": "0.0012 ± 0.0066"}
{"sequence": "UCCACCGUACAGCUUGCAUAGUAUUUAGUUA", "pre-steady-state target cleavage rate": "0.0628 ± 0.012"}
{"sequence": "UGGACCUACAGGUUGCAUAGUAAUUAGUUA", "pre-steady-state target cleavage rate": "0.0177 ± 0.0042"}
{"sequence": "UCCACCUACAGCUUGUAUAGUAUUUAGUUA", "pre-steady-state target cleavage rate": "0.0524 ± 0.0091"}
{"sequence": "AGGCACCUACAGCUUGCAUAGUAUUUAGUUA", "pre-steady-state target cleavage rate": "2.2 ± 1.8"}
{"sequence": "UCCUCCUACAGCUUGAUAGUAUUUAGUUA", "pre-steady-state target cleavage rate": "0.00583 ± 0.0021"}
{"sequence": "UCGUCCUACACCUUGCAUAGUAUUUAGUUA", "pre-steady-state target cleavage rate": "0.0586 ± 0.0084"}
{"sequence": "AGGACCUACAGCUUGCAUAGAUAUUUAGUUA", "pre-steady-state target cleavage rate": "0.0018 ± 0.0059"}
{"sequence": "UCCUGGAUGUCGAUGCAUAGUAUAUUAGUUA", "pre-steady-state target cleavage rate": "0.00127 ± 0.0062"}
{"sequence": "UGGACGUACUGCUUGCAUAGUAUUUAGUUA", "pre-steady-state target cleavage rate": "0.056 ± 0.0091"}
{"sequence": "UCGAACCUACAGCUUGCAUAGUAUUUAGUUA", "pre-steady-state target cleavage rate": "0.0781 ± 0.016"}
{"sequence": "UGGACCUACAGCUUGCAUAGUAUAAACAAA", "pre-steady-state target cleavage rate": "0.00145 ± 0.0043"}
{"sequence": "UCCUGCUACAGCUUGGAUAGUAUUUAGUUA", "pre-steady-state target cleavage rate": "0.0507 ± 0.0096"}
{"sequence": "UGGACCUACAGCUUGCAUAGUAUUUAGUUG [g2:g29:cont:t1G]", "pre-steady-state target cleavage rate": "0.0555 ± 0.01"}
{"sequence": "UGGACGUACAGCUUGCAUAGUAUUAAGUUA", "pre-steady-state target cleavage rate": "0.0383 ± 0.0073"}
{"sequence": "UCCACCUACAGCUUGCAUAGUAUUUCAGUUA", "pre-steady-state target cleavage rate": "0.0139 ± 0.0037"}
{"sequence": "UGGUCCUUCAGCUUGCAUAGUAUUUAGUUA", "pre-steady-state target cleavage rate": "0.0643 ± 0.011"}
{"sequence": "UCGACCUACAGCUUGCGUAGUAUUUAGUUA", "pre-steady-state target cleavage rate": "0.0695 ± 0.018"}
{"sequence": "UCCACCUACAGCUUGCAUAAUAUUUAGUUA", "pre-steady-state target cleavage rate": "0.0203 ± 0.0032"}
{"sequence": "UCGACCUACAGCUUGCAAAGUAUUUACAAA", "pre-steady-state target cleavage rate": "0.00465 ± 0.002"}
{"sequence": "UCGAGCUACACCUUGCAUAGUAUUUAGUUA", "pre-steady-state target cleavage rate": "0.0524 ± 0.0089"}
{"sequence": "UGGACACUACAGCUUGCAUAGUAUUUAGUUA", "pre-steady-state target cleavage rate": "0.0643 ± 0.0081"}
{"sequence": "AGGACCUGACAGCUUGCAUAGUAUUUAGUUA", "pre-steady-state target cleavage rate": "0.067 ± 0.011"}
{"sequence": "UGGACCUACUGCAUGCAUAGUAUUUAGUUA", "pre-steady-state target cleavage rate": "0.0325 ± 0.0061"}
{"sequence": "AGGACCUACACCUUGCAUAGUAUUUAGUUA", "pre-steady-state target cleavage rate": "0.0855 ± 0.015"}
